In PubChem BioAssay AID1671190 (National Center for Advancing Translational Sciences (NCATS), 2021):
“And” between values parts separate entries of the source, which are not always exact repeats. Equal entries are not always repeated. Out of some 580,000 compounds screened, about 6,100 (1.1%) were called active. This list was built around the results that the source calls inconclusive (neither active nor inactive); the mix of calls is not that of the screen. The call rests on the fitted dose curve; in most records, active means well fitted inhibition curve with a large enough effect; inconclusive means small, poorly fitted or top-dose-only effect, or another doubt; inactive means no such curve, though single readings can be large or run the other way. Where the call is inconclusive, the potency comes from a doubtful curve fit.

Amino acid sequences for entries named in this document (tags omitted). A change or cut given only in a name is not applied to a line headed by its entry.
UniProt P18054: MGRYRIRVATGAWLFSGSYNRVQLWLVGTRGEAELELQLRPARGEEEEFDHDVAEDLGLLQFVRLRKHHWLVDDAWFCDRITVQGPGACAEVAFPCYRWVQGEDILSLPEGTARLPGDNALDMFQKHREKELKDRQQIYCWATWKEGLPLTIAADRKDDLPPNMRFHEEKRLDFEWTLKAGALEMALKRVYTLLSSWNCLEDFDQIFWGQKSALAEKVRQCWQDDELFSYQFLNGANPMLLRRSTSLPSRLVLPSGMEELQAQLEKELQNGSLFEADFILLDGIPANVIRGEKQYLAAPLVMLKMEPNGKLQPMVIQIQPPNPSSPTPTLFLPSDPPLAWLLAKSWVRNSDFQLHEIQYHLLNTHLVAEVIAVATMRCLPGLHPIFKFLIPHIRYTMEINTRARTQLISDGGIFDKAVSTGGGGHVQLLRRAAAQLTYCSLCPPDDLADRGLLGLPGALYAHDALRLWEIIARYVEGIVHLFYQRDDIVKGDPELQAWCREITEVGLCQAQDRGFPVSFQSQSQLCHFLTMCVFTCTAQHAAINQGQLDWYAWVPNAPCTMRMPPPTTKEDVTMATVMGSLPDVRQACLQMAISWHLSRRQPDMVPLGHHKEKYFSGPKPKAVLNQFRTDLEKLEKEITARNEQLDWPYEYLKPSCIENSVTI

Target: Polyunsaturated fatty acid lipoxygenase ALOX12 (Homo sapiens) (UniProt P18054)
Assay: Primary qHTS assay for inhibitors of human arachidonate 12S-lipoxygenase (ALOX12): Round 2
Conditions: purified 12hLO, xylenol orange hydroperoxide absorbance; activity change, negative = inhibition: at 108 µM (top of the series) unless noted
In short: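 Purified human 12hLO at 150 nM in 25 mM Hepes, 0.01% Triton X-100, pH 7.0, preincubated 15 min at room temperature with compound. Reaction started with 40 uM arachidonic acid, 30 min at room temperature. Hydroperoxide measured by Fe-xylenol orange, 573/405 nm absorbance ratio.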
On the % scale 0 is the no-effect control and ±100 the full control effect; potency means the concentration at half of the fitted maximal effect.

`COc1cc(C2c3c(-c4cc(C)cc(C)c4O)n[nH]c3C(=O)N2CCCO)cc(OC)c1OC` (centres undefined) was tested. Which “activity change, negative = inhibition” value did it give?
Its value is inactive: -12.6%.

Which “activity change, negative = inhibition” value does the source give for `O=C(CN1CCc2ccccc2C1)N1N=C(c2ccco2)CC1c1cccs1` (centres undefined) here?
The value was inactive: 18.3%.

How did the Potency turn out when `Cc1cc(C)c(C(=O)CSC2=NC(N)=C(C#N)C3(CCCCC3)C2C(N)=O)cc1C` (centres undefined) was run?
Its Potency is inconclusive: 39.8 µM [inhibitor, partial curve, poor fit].

How did the “activity change, negative = inhibition” value turn out when `Cc1ccccc1NC(=O)COC(=O)/C=C/c1cn(-c2ccccc2)nc1-c1cccnc1` was run?
Its value is inactive: 0.31%.

How did the Potency turn out when `CCCc1nnc(NC(=O)C2CC(=O)N(C3CCCC3)C2)s1` (centres undefined) was run?
The Potency was inconclusive: 126 µM [inhibitor, partial curve, poor fit].

`O=C(O)c1ccc2c(=O)n3c(nc2c1)/C(=C/c1ccccc1C(F)(F)F)CCCC3` was tested. Which “activity change, negative = inhibition” value did it give?
The value was inactive: 2.07%.

For `CN(C)c1nc2c(c(=O)[nH]c(=O)n2C)n1CCOc1ccccc1`, which Potency is on record?
Its Potency is inconclusive: 0.126 µM [inhibitor, full curve, poor fit].

Which Potency does the source give for `COC(=O)C1=CN(c2ccc(OC)cc2)C(N)=C(C#N)C1c1ccc(OC)cc1` (centres undefined) here?
Its Potency is inconclusive: 44.7 µM [inhibitor, partial curve, poor fit].

How did the “activity change, negative = inhibition” value turn out when `Cc1cccnc1C(C)n1cc(-c2ccccc2-c2ccco2)nn1` (centres undefined) was run?
The value was inactive: 23.4%.

How did the Potency turn out when `N[C@@H](COP(=O)(O)O)C(=O)O` was run?
The Potency was inconclusive: 7.08 µM [inhibitor, partial curve, poor fit] and inconclusive: 39.8 µM [inhibitor, partial curve, poor fit].

For `O=C(/C=C/c1ccco1)N(Cc1cccc(F)c1)C1CCS(=O)(=O)C1` (centres undefined), which Potency is on record?
Its Potency is inconclusive: 17.8 µM [inhibitor, partial curve].

`O=[N+]([O-])c1ccc(CN2CCSCC2)cc1` was tested. Which “activity change, negative = inhibition” value did it give?
Its value is inactive: -20.6%.

Which Potency does the source give for `CCCCN1C(=O)C(O)(c2c(C)[nH]c3ccccc23)c2ccccc21` (centres undefined) here?
Its Potency is inconclusive: 1.58 µM [inhibitor, full curve, poor fit].

For `COC(=O)c1ccc(Oc2coc3cc(OC(=O)c4cccs4)ccc3c2=O)cc1`, which “activity change, negative = inhibition” value is on record?
The value was inactive: -3.57%.

For `c1ccc(OCCCn2ccnc2)cc1`, which Potency is on record?
Its Potency is inconclusive: 100 µM [inhibitor, single point].

Which Potency does the source give for `CCC(C)(C)NC(=O)CN(C(=O)CCC(=O)Nc1nccs1)c1cccc(C)c1C` here?
The Potency was inconclusive: 158 µM [inhibitor, partial curve, poor fit].

Which Potency does the source give for `O=C(c1cc(COc2ccc(F)cc2Cl)on1)N1CCN(c2cnccn2)CC1` here?
Its Potency is inconclusive: 44.7 µM [inhibitor, partial curve, poor fit].

`CC(C)Oc1ccc(S(=O)(=O)N2CCOCC2)cc1NC(=O)CC1OC(=O)c2ccccc21` (centres undefined) was tested. Which Potency did it give?
The Potency was inconclusive: 112 µM [inhibitor, single point].

`CC(C(=O)NC1C(=O)N2C(C(=O)O)=C(CSc3nnnn3C)CSC12)n1cc(Br)cn1` (centres undefined) was tested. Which “activity change, negative = inhibition” value did it give?
The value was inactive: -13.6%.

For `Cc1cccc(-c2nc(C#N)c(N3CCN(C(=O)c4ccc(F)cc4)CC3)o2)c1`, which Potency is on record?
Its Potency is inconclusive: 5.01 µM [inhibitor, full curve].

For `Cc1csc2ncnc(N3CCN(C(=O)Nc4ccc(OC(F)(F)F)cc4)CC3)c12`, which “activity change, negative = inhibition” value is on record?
The value was inactive: 47.4%.

`CCCCNc1nc2c(c(=O)[nH]c(=O)n2C)n1Cc1ccccc1Cl` was tested. Which “activity change, negative = inhibition” value did it give?
The value was inactive: 17.6%.

Which “activity change, negative = inhibition” value does the source give for `CN(C)c1nc(N)nc(CSc2ccccc2F)n1` here?
Its value is inactive: 24.1%.

How did the “activity change, negative = inhibition” value turn out when `Cc1cccc(-n2ncc3c(N4CCCCCC4)ncnc32)c1` was run?
The value was inactive: -22.7%.

Which Potency does the source give for `Cc1cnc(C(=O)Oc2c(C)cccc2C)cn1` here?
The Potency was inconclusive: 39.8 µM [inhibitor, partial curve].

With `CCCc1cc(-c2[nH]ncc2-c2ccc3c(c2)OCCCO3)c(O)cc1OC` as the compound, how does the Potency read?
The Potency was inconclusive: 56.2 µM [inhibitor, partial curve, poor fit].

`O=C(O)CCC(=O)Nc1ccccc1Oc1ccccc1` was tested. Which “activity change, negative = inhibition” value did it give?
Its value is inactive: -8.64%.

How did the Potency turn out when `Cc1nc(=O)[nH]c(C)c1CCC(=O)N[C@H](c1ccccn1)C1CC(O)C1` (some centres undefined) was run?
The Potency was inconclusive: 100 µM [inhibitor, partial curve, poor fit].

Which “activity change, negative = inhibition” value does the source give for `CC1(C)CC(NC(=O)CCc2ccco2)CC(C)(C)N1` here?
Its value is inactive: -9.05%.

How did the “activity change, negative = inhibition” value turn out when `O=c1[nH]ccn1C1CCN(Cc2cccnc2)CC1` was run?
The value was inactive: 104% [at 176 µM].

How did the Potency turn out when `CC(=O)c1ccc(OC(=O)Cc2cccc3ccccc23)cc1` was run?
Its Potency is inconclusive: 44.7 µM [inhibitor, partial curve, poor fit].

How did the Potency turn out when `CC1(C)[C@H](Cc2cc(CC3CCCCC3)on2)C[C@@H]1NS(C)(=O)=O` was run?
The Potency was inconclusive: 44.7 µM [inhibitor, partial curve].

For `O=C(O)CCCC(=O)N1CC(=O)Nc2ccccc21`, which Potency is on record?
Its Potency is inconclusive: 100 µM [inhibitor, single point].

With `CCOC(=O)c1[nH]c2cc(OC)c(OC)cc2c1N` as the compound, how does the Potency read?
The Potency was inconclusive: 7.94 µM [inhibitor, full curve].

With `CN(C)C(=O)c1c(NC(=O)c2ccco2)sc2c1CCCCC2` as the compound, how does the Potency read?
Its Potency is inconclusive: 141 µM [inhibitor, partial curve, poor fit].

With `O=C(NNc1ccc([N+](=O)[O-])cc1)Nc1ccccc1` as the compound, how does the Potency read?
The Potency was inconclusive: 25.1 µM [inhibitor, partial curve, poor fit].

`CC(O)(c1cccc(F)c1)c1nc(-c2ccc(Cl)cc2)cs1` (centres undefined) was tested. Which Potency did it give?
Its Potency is inconclusive: 50.1 µM [inhibitor, partial curve, poor fit].

For `Cc1ccccc1-n1cc[nH]c1=S`, which Potency is on record?
Its Potency is inconclusive: 39.8 µM [inhibitor, partial curve].

Which “activity change, negative = inhibition” value does the source give for `CN(C)c1ccc(C=Nc2ccc(O)cc2)cc1` here?
The value was inactive: 122%.

`CN(CC(=O)N1CCCC(CCc2ccc(F)cc2)C1)C1CCNCC1` (centres undefined) was tested. Which “activity change, negative = inhibition” value did it give?
Its value is inactive: 14.8%.

With `Cc1nc(C)c(-c2ccc(SCc3cccc(F)c3)nn2)s1` as the compound, how does the “activity change, negative = inhibition” value read?
The value was inactive: 13.8%.

How did the “activity change, negative = inhibition” value turn out when `COc1ccc(/C=C/C(=O)C(C(N)=O)=C2SCCS2)cc1` was run?
Its value is inactive: -22.7%.

With `Cc1cc(-c2ccc(C(C)C)c(S(=O)(=O)NCc3ccco3)c2)on1` as the compound, how does the Potency read?
Its Potency is inconclusive: 79.4 µM [inhibitor, partial curve, poor fit].

With `C[C@H](CO)N1C[C@H](C)[C@@H](CN(C)C(=O)Nc2ccc(C(F)(F)F)cc2)Oc2ccc(NC(=O)c3ccncc3)cc2C1=O` as the compound, how does the Potency read?
The Potency was inconclusive: 35.5 µM [inhibitor, partial curve].

`Cc1ccc(-c2noc(C3CCCN(C(=O)c4ccccc4Br)C3)n2)cc1` (centres undefined) was tested. Which Potency did it give?
The Potency was inconclusive: 56.2 µM [inhibitor, full curve, poor fit].

For `NC(=O)c1cccn1Cc1ccccc1Cl`, which “activity change, negative = inhibition” value is on record?
The value was inactive: -9.13%.

With `CCn1c(C)nc([N+](=O)[O-])c1C(=O)O` as the compound, how does the Potency read?
Its Potency is inconclusive: 50.1 µM [inhibitor, partial curve, poor fit].

How did the Potency turn out when `O=C(O)c1cccc(NC(=S)N/N=C/c2cccc(O)c2)c1` was run?
The Potency was inconclusive: 50.1 µM [inhibitor, partial curve, poor fit].

Which Potency does the source give for `O=C(O)c1cccnc1` here?
The Potency was inconclusive: 24.3 µM [inhibitor, partial curve, poor fit].

How did the Potency turn out when `CCOCC(=O)Nc1nnc(C2CCCCC2)s1` was run?
The Potency was inconclusive: 22.4 µM [inhibitor, partial curve].

With `O=S1(=O)c2ccc(Br)cc2N2CCC[C@@H]2CN1C1CC1` as the compound, how does the Potency read?
Its Potency is inconclusive: 79.4 µM [inhibitor, single point].

Which Potency does the source give for `CCC(=O)N1N=C(c2c(-c3ccccc3)c3cc(Cl)ccc3n(C)c2=O)CC1c1cccs1` (centres undefined) here?
Its Potency is inconclusive: 112 µM [inhibitor, partial curve, poor fit].

With `O=C(c1ccccc1F)N1CCN(Cc2ccccc2F)CC1` as the compound, how does the Potency read?
Its Potency is inconclusive: 0.398 µM [inhibitor, full curve, poor fit].

For `CC12CC3CC(C)(C1)CC(C(=O)NC(C)(C)CO)(C3)C2`, which Potency is on record?
The Potency was inconclusive: 126 µM [inhibitor, single point].

`CCN1CCN(C(=O)Nc2cc(Cl)ccc2OC)CC1` was tested. Which “activity change, negative = inhibition” value did it give?
The value was inactive: -13.1%.

How did the Potency turn out when `CCc1noc(C)c1C(=O)Nc1nc(-c2ccccc2)c(C(C)=O)s1` was run?
The Potency was inconclusive: 89.1 µM [inhibitor, single point].

For `N#C[C@@H](c1ccccc1)C1CCN(S(=O)(=O)CCCCl)CC1`, which “activity change, negative = inhibition” value is on record?
The value was inactive: -4.44%.

Which Potency does the source give for `Cc1ccc(-c2noc(C3CCCN(C(=O)c4cccc(F)c4)C3)n2)cc1` (centres undefined) here?
Its Potency is inconclusive: 141 µM [inhibitor, single point].

For `O=C(Nc1nnc(COc2ccc(Cl)cc2)s1)C1CCCO1` (centres undefined), which Potency is on record?
Its Potency is inconclusive: 44.7 µM [inhibitor, partial curve, poor fit].

For `NC(=S)NN=C1CCCCCCCCCC1`, which Potency is on record?
Its Potency is active: 44.7 µM.

For `CN1CCN(CCCNC(=O)c2ccc3c(c2)N(Cc2ccc(F)cc2)CCS3)CC1`, which Potency is on record?
Its Potency is inconclusive: 89.1 µM [inhibitor, single point].

With `Nc1nc(Nc2ccccc2)nc2ccccc12` as the compound, how does the Potency read?
The Potency was inconclusive: 39.8 µM [inhibitor, partial curve, poor fit].

`CCc1nc(SCc2coc(-c3cccc(F)c3)n2)n[nH]1` was tested. Which Potency did it give?
Its Potency is inconclusive: 112 µM [inhibitor, single point].

For `C#CCn1cc(/C=C2\NC(=O)NC2=O)c2ccccc21`, which Potency is on record?
Its Potency is inconclusive: 2.51 µM [inhibitor, full curve].

With `COc1ccc(/C=C2/SC(=O)N(CCNC(=O)C3CC(=O)N(Cc4ccccc4)C3)C2=O)cc1` (centres undefined) as the compound, how does the Potency read?
Its Potency is inconclusive: 100 µM [inhibitor, single point].

Which Potency does the source give for `Cc1cc(C)c(NC(=O)C(C)n2nnc3sc(-c4ccccc4)cc3c2=O)c(C)c1` (centres undefined) here?
Its Potency is inconclusive: 50.1 µM [inhibitor, partial curve, poor fit].

With `CCOC(=O)C1CCN(C(c2ccc(F)cc2)c2sc3nc(-c4ccco4)nn3c2O)CC1` (centres undefined) as the compound, how does the Potency read?
Its Potency is inconclusive: 44.7 µM [inhibitor, full curve, poor fit].

With `CCOC(=O)c1c(NC(=O)c2cccc([N+](=O)[O-])c2C(=O)O)sc2c1CCCC2` as the compound, how does the “activity change, negative = inhibition” value read?
The value was inactive: -6.66%.

`CC(=O)Nc1ccc(NC(=O)COC(=O)c2ccc3ccccc3n2)cc1` was tested. Which Potency did it give?
The Potency was inconclusive: 25.1 µM [inhibitor, partial curve].
